Among all 340,000 compounds or so, about 170 (0.05%) were called active. Inconclusive results, whose numbers are uncertain, are shown with a selection of clear calls. The call rests on the fitted dose curve; in most records, active means well fitted inhibition curve with a large enough effect in the signal ratio, with a control signal flat (not every such curve was filed as active); inconclusive means small, poorly fitted or top-dose-only effect, or effect the other way, or a change in a side signal; inactive means flat fitted curve, though single readings scatter; the % refers to the signal ratio. Where the call is inconclusive, the potency comes from a doubtful curve fit.
Assay: qHTS Assay to Find Inhibitors of Chronic Active B-Cell Receptor Signaling;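 on activity change, negative = inhibition: plate controls were basal doxycycline-induced cells for no effect and cells given 10 µM MG132 for full effect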
Details: ABC-DLBCL IkBa-CBG/CBR reporter, luminescence ratio (green luciferase fused to IkBa over red control in TMD8 lymphoma cells), 4 h; activity change, negative = inhibition: at 46.1 µM (top of the series)
Procedure, shortened: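 TMD8 human ABC-DLBCL cells with doxycycline-inducible IκBα–green luciferase fusion and unfused red luciferase, in 0.5% FBS medium; compounds up to 46 uM, 4 h at 37C. Green/red luminescence ratio, filter-overlap corrected, fitted to concentration-response curves.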
Potency means the concentration at half of the fitted maximal effect.

Compound | activity change, negative = inhibition | Potency
CCOC(=O)Cc1csc(NC(=O)c2sc3nc4c(C)cc(C)cc4cc3c2N)n1 | inactive: -0.8% | 
O=C(COC(=O)C1=COCCO1)Nc1ccccc1 |  | inconclusive: 35.5 µM [falling, single point]
COc1ccc2cc(CCNC(=O)CC(C)(C)C)c(=O)[nH]c2c1 | inconclusive: 5.16% | 
COCCn1c(-c2ccco2)nc2nc3ccccc3nc21 | inconclusive: 19% | 
CCN(CC)c1ccc(NC(=O)c2cccnc2)c(C)c1 | inactive: -24.2% | 
Cc1ccc(S(=O)(=O)Cn2nnnc2C(C(C)C)N2CCSCC2)cc1 (stereo not given) | inactive: 0.839% | 
O=C(Cn1ncc(Cl)c(Cl)c1=O)Nc1ccc2c(c1)OCO2 | inactive: 0.0337% | 
Cc1ccccc1NC(=S)N(Cc1cccnc1)Cc1ccco1 | inactive: -3.27% | 
Cc1nn(Cc2c(F)c(F)c(F)c(F)c2F)c(C)c1NC(=O)c1ccc(COc2ccc(Cl)cc2Cl)o1 | inconclusive: -4.74% | 
CN(CC(=O)Nc1ccccc1C(F)(F)F)Cc1c(O)ccc2ccccc12 | inactive: -17.4% | 
CCOC(=O)C1=CC[C@H]2c3c(c4ccc(OC)cc4n3C)C(=O)C1N2S(=O)(=O)c1ccc(C)cc1 | inconclusive: -4.08% | 
C/C(=N/NC(=O)c1ccoc1C)c1ccc(N2CCOCC2)cc1 |  | inconclusive: 14.6 µM [falling, partial curve]
CC(=O)N(C)c1ccc(N=NC2C(=O)N(C(N)=S)N=C2C)cc1 (stereo not given) | inactive: 4.54% | 
CC1(OC(=O)C2CCCC2)C(=O)C=C2C=C(c3ccsc3)N(c3ccccc3)C=C2C1=O (stereo not given) | inactive: 3.35% | 
O=C(CO/N=C/c1c(Cl)cccc1Cl)NNC(=O)c1cccc(Cl)c1 | inactive: 1.07% | 
CN(C)C(=O)c1coc2nc3ccccc3nc12 |  | inconclusive: 17.8 µM [falling, partial curve, poor fit]
Cc1nc(-c2ccc([N+](=O)[O-])cc2)sc1C(=O)O |  | inconclusive: 35.5 µM [rising, partial curve]
COC(=O)Cn1c(C)nc2ccccc21 | inconclusive: -16.1% | 
Cc1ccc(NS(=O)(=O)c2cccc(C(=O)NCCCN3CCCC3=O)c2)cc1 | inactive: 6.27% | 
Cc1ccc(Cl)cc1NS(=O)(=O)c1ccc2oc(=O)ccc2c1 | inconclusive: -2.32% | 
CC(=O)c1ccc(N2C(=O)Nc3ccccc3S2(=O)=O)cc1 | inactive: -4.56% | 
CCn1c(=O)c2ccccc2n(CC(=O)NC2CCCCC2)c1=O | inactive: -3.51% | 
COc1ccccc1N1CCN(Cc2ccc(O)c3ncccc23)CC1 |  | inconclusive: 0.58 µM [cytotoxic, full curve, poor fit]
O=C(NCCN1C(=O)S/C(=C\c2ccccc2F)C1=O)C1=COCCO1 |  | inconclusive: 16.4 µM [falling, single point]
COc1ccc(C2c3[nH]c4ccccc4c3C[C@H]3C(=O)N(c4ccccc4C(=O)N4CCC(C(=O)O)CC4)C(=O)N23)cc1 (stereo not given in full) |  | inconclusive: 14.1 µM [rising, partial curve, poor fit]
Cn1cnnc1SCC(=O)Nc1sc2c(c1C(N)=O)CCC2 | inactive: 2.1% | 
COc1cccc(C2=N/C(=C\N(C)C)C(=O)O2)c1 | inactive: -0.147% | 

Rewritten as tab-separated lines: four of the compounds above.
Compound	activity change, negative = inhibition	Potency
O=C(CO/N=C/c1c(Cl)cccc1Cl)NNC(=O)c1cccc(Cl)c1	inactive: 1.07%	
CN(C)C(=O)c1coc2nc3ccccc3nc12		inconclusive: 17.8 µM [falling, partial curve, poor fit]
Cc1nc(-c2ccc([N+](=O)[O-])cc2)sc1C(=O)O		inconclusive: 35.5 µM [rising, partial curve]
COC(=O)Cn1c(C)nc2ccccc21	inconclusive: -16.1%	

(more compounds)

Compound | activity change, negative = inhibition | Potency
Cc1csc(NC(=O)C2CCN(C(=O)c3ccccc3C)CC2)n1 | inconclusive: -9.76% | 
CC(C)c1nn2c(=O)cc(CSc3ccccc3NC(=O)c3ccccc3F)nc2s1 | inconclusive: 2.68% | 
Cn1c(/C=C/c2ccccc2)nc2ccccc2c1=O | inactive: 4.8% | 
CC1(C)CC(=O)C(CS(=O)(=O)c2ccccc2)=C(Cl)C1 | inconclusive: 0.0407% | 
CCOC(=O)c1ccccc1NC(=O)Cn1c(=O)n(-c2ccc(CC)cc2)c(=O)c2c(C)c(C(=O)N(C)C)sc21 |  | inconclusive: 3.55 µM [falling, partial curve, poor fit]
c1ccc(CCNc2nc3ccccc3s2)cc1 |  | inconclusive: 29.1 µM [falling, single point]
Cc1ccc2c(c1)c(/C=C/c1cc[n+](C)cc1)c(C)n2C | inactive: 7.16% | 
Cc1ccccc1-n1nc(C)c2c(C(=O)NN)cc(-c3ccncc3)nc21 |  | inconclusive: 7.94 µM [falling, partial curve]
Cc1ccc(NC(=O)CCNC(=O)c2ccc([N+](=O)[O-])cc2)cc1C | inconclusive: 0.347% | 
O=C1OCCC1Sc1nnc(-c2ccc(Br)cc2)o1 (stereo not given) |  | inconclusive: 4.11 µM [falling, partial curve]
Cc1ccc(CCN2CC(C(=O)NCCC(C)C)CC2=O)cc1 (stereo not given) | inconclusive: 7.11% | 
O=c1c(-c2ccc(O)cc2O)coc2cc(O)cc(O)c12 | inconclusive: 14.9% | 
CCOC(=O)c1ccsc1NC(=O)CCS(=O)(=O)c1ccccc1 | inconclusive: -6.04% | 
CCOc1ccc2nc(SCC(=O)Nc3cccc(S(=O)(=O)NC4=NCCCCC4)c3)[nH]c2c1 | inconclusive: -11.5% | 
CCN(CC)C(=O)c1sc2c(c1C)c(=O)n(CCc1ccccc1)c(=O)n2Cc1ccc(F)cc1Cl | inactive: -5.91% | 
CCCCOc1c(Br)cc(/C=C2\N=C(C)OC2=O)cc1OCC | inactive: 22.8% | 
NS(=O)(=O)c1ccc(NC(=S)NNC(=O)c2ccc(Br)o2)cc1 |  | inconclusive: 35.5 µM [falling, single point]
Nc1ccc([N+](=O)[O-])cc1C(=O)NNC(=O)c1ccco1 |  | inconclusive: 22.4 µM [falling, single point]
O=C(OC1CCOC1=O)c1ccc(-c2nc3ccccc3s2)s1 (stereo not given) |  | inconclusive: 6.31 µM [falling, full curve, poor fit]
Nc1nc(C(=O)N2CCOCC2)nn1S(=O)(=O)c1ccc(Cl)cc1 | inactive: 6.17% | 
COC(=O)Cc1c(C)nc2nc(-c3ccccc3)[nH]n2c1=O |  | inconclusive: 4.11 µM [falling, partial curve]
Cc1onc(-c2ccccc2)c1C(=O)NC1CC1 | inactive: -15% | 
CCc1ccc(C(=O)COC(=O)c2cccs2)cc1 | inconclusive: 0.0535% | 
COc1ccccc1C(=O)NC(=O)COC(=O)CN1C(=O)NC(C)(C)C1=O | inactive: -0.962% | 
CCC(=O)NC1(C(F)(F)F)C(=O)NC(C)=C1C#N (stereo not given) |  | inconclusive: 18.4 µM [falling, partial curve]
Cc1ccc2cccc(NC(=S)NC(=O)c3ccnn3C)c2n1 |  | inconclusive: 1.16 µM [rising, partial curve, poor fit]
CCOC(=O)CSc1ccc(-c2nc3ccccc3[nH]2)cn1 |  | inconclusive: 20.6 µM [falling, partial curve]

Compound | activity change, negative = inhibition | Potency
Cc1cc(OCC(=O)NCC(c2ccc(F)cc2)N2CCOCC2)ccc1Cl (stereo not given) | inactive: -4.68% | 
CN(C)c1ccc(NC(=O)COC(=O)CNC(=O)c2cccs2)cc1 | inconclusive: 1.3% | 
COC(=O)c1cn(CC(=O)N2CCCCC2C)c2ccccc12 (stereo not given) | inactive: -0.376% | 
Cc1ccc(S(=O)(=O)Oc2ccc(/C=N/NC(=O)c3c(Cl)cnn3C)cc2)cc1 | inconclusive: -19.7% | 
Cc1ccc(C(=O)NCCCc2ccccc2)c(C)c1 | inactive: -7.87% | 
CN1CCN(C(=O)CCN2C(=O)/C(=C\c3ccc(Cl)cc3Cl)SC2=S)CC1 |  | inconclusive: 35.5 µM [rising, single point]
Cc1cc2nc(-c3cccc(NC(=O)C(C)C)c3C)oc2cc1C | inconclusive: 16.1% | 
CC1Cc2ccccc2N1S(=O)(=O)c1cccc(C(=O)Nc2cccnc2)c1 (stereo not given) | inactive: -0.175% | 
COc1cc(/C(C)=N/NC(=O)c2cccc(S(=O)(=O)N3CCCC3)c2)cc(OC)c1OC | inconclusive: -26.8% | 
COc1cc(OC)c(OC)cc1/C=C/c1nc2cc3ccccc3cc2c(=O)n1-c1ccc(F)c(Cl)c1 |  | inconclusive: 22.4 µM [falling, single point]
CC(C)(C)c1ccc(COn2c(=O)c(-c3ccco3)[n+]([O-])c3ccccc32)cc1 |  | inconclusive: 32.6 µM [falling, single point]
COc1ccc(C(C(=O)NC(C)(C)C)N(CCO)C(=O)CCC(=O)Nc2cc(C)on2)cc1 (stereo not given) | inactive: -10.5% | 
Fc1ccc(NCc2nnc(SCc3nnc(-c4ccccc4)o3)n2Cc2ccccc2)cc1 | inconclusive: 0.0008% | 
COc1ccc(-c2noc(CCC(=O)N3CCN(c4cccc(C)c4)CC3)n2)cc1 | inactive: -0.0829% | 
COc1cccc(C(=O)NC(=O)Nc2cc(C)[nH]n2)c1 |  | inconclusive: 7.08 µM [falling, partial curve]
O=C(O)C1Cc2ccccc2CN1C(=O)COc1ccc(Cl)cc1Cl (stereo not given) | inconclusive: 6.69% | 
O=C(Nc1c(F)cccc1F)c1ccc2c(c1)CCN2S(=O)(=O)c1ccccc1 |  | inconclusive: 20 µM [falling, single point]
Cc1cc(C)n2nc(SCC3COc4ccccc4O3)nc2n1 (stereo not given) | inconclusive: 6.36% | 
Oc1ccc(/C=N/N2CCCCC2)cc1O | inconclusive: -0.608% | 
Oc1ccccc1Nc1nc(NCc2ccco2)c2ccccc2n1 | inconclusive: -19.3% | 
Cc1cc(C)nc(NC(=O)CCCC(=O)O)c1 |  | inconclusive: 14.1 µM [rising, partial curve, poor fit]
O=C(NCCCCCCNC(=O)c1ccccc1O)c1ccccc1O | inactive: -19% | 
CC(=O)Nc1ccc(S(=O)(=O)NCCSCc2c(Cl)cccc2Cl)cc1 |  | inconclusive: 22.4 µM [falling, single point]
O=C(/C=C/c1ccco1)NC(=S)Nc1cccc([N+](=O)[O-])c1 | inconclusive: 2.2% | 
O=S(=O)(NC1c2cccc3cccc(c23)C1Sc1ncccn1)c1ccc(Cl)cc1 (stereo not given) |  | inconclusive: 10.3 µM [rising, partial curve, poor fit]
COc1cccc(C(=O)CSc2nnnn2C2CCCCC2)c1 |  | inconclusive: 1.3 µM [falling, partial curve, poor fit]

Reference: PubChem BioAssay AID493014 (National Center for Advancing Translational Sciences (NCATS), 2011)
